Experimental data reported in the supplement of paper PMC10735217.
The other results are listed elsewhere or left out. This data set is noisy: repeats of one test often differ as much as different tests do.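 The human kidney-derived cells carry a stably integrated construct of eight TEAD-binding elements driving luciferase, read by luminescence in a drug-repurposing library screen. A compound counts as a hit when its signal is more than five robust Z scores above the plate mean.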

Test system: HEK293A TEAD-LUC reporter
Experiment: TEAD-luciferase reporter activity (YAP activation), robust Z score vs plate; higher = stronger YAP/TEAD activation
Conditions: 24 h

| SMILES | TEAD-luciferase reporter activity (compound concentration: 200 nM) | TEAD-luciferase reporter activity (compound concentration: 2 uM) | TEAD-luciferase reporter activity (compound concentration: 10 uM) |
| --- | --- | --- | --- |
| Cc1cccc(C(=O)NC2N=NN=N2)n1 | inactive: -0.64 | inactive: -0.461 | inactive: -0.475 |
| Nc1nc2c(cnn2CCCc2ccc(O)cc2)c2nc(-c3ccco3)nn12 | inactive: -0.85 | inactive: 0.348 | inactive: 0.188 |
| COc1ccc(/C=C/CCCCOc2ccc(C(=O)c3cccc(C(=O)O)c3)cc2CCC(=O)O)cc1 | inactive: -1.78 | inactive: -1.15 | inactive: -0.444 |
| c1ccc(-c2cc(-n3cc(Cn4ccnc4)c4ccccc43)on2)cc1 | inactive: -0.113 | inactive: 0.0318 | inactive: 4.58 |
| O=C(O)CCC(=O)c1ccc(C2CCCCC2)c(Cl)c1 | inactive: -1.53 | inactive: -1.81 | inactive: 0.505 |
| NS(=O)(=O)NCCNc1nonc1/C(=N/O)Nc1ccc(F)c(Br)c1 | inactive: 0.374 | inactive: 1.62 | inactive: -1.47 |
| CN(C)CCC(=O)N1Cc2ccccc2CC2(CCCN2C)C1 (stereo not given) | inactive: -1.28 | – | inactive: -1.63 |
| CC1(C)Oc2cc(NS(C)(=O)=O)ccc2N(c2ccc(F)cc2)C1=O [Aparare] | inactive: -1.45 | – | inactive: -0.85 |
| COc1cc2c(cc1OC)C1CN(C)CCC1N=C2c1ccc(NS(=O)(=O)c2ccc(C)cc2)cc1 (stereo not given) [Tolafentrine] | inactive: -1.46 | inactive: -0.711 | inactive: 2.37 |
| OC1CCN(CCCN2c3ccccc3Sc3ccc(C(F)(F)F)cc32)C1 (stereo not given) | inactive: 1.3 | inactive: -0.736 | inactive: 0.638 |
| CCC(=O)c1c(O)cc(O)cc1O | inactive: -1.1 | inactive: 0.484 | inactive: 0.497 |
| O=C(O)CCNC(=O)c1ccccc1 [Betamipron] | inactive: -0.667 | inactive: -1.28 | inactive: -0.763 |
| COc1c(N2C[C@@H](C)C[C@H](N)C2)ccc2c(=O)c(C(=O)O)cn(C3CC3)c12 [Nemonoxacin] | inactive: -1.15 | inactive: 0.177 | inactive: -1.93 |
| O=C1Nc2ccc(Cl)cc2[C@](C#CC2CC2)(C(F)(F)F)N1 | inactive: 0.924 | inactive: 0.0316 | inactive: 3.82 |
| COCCCOc1ccnc(CS(=O)c2nc3ccccc3[nH]2)c1C (stereo not given) | active: 5.62 | – | inactive: 1.05 |
| COCCCOc1ccnc(CS(=O)c2nc3ccccc3[nH]2)c1C (stereo not given) [Rabeprazole sodium] | – | inactive: -1.04 | – |
| COc1ccc([C@@H]2COc3cc(OC)ccc3C2=O)cc1 | inactive: -0.93 | inactive: -0.434 | inactive: 0.687 |
| CC(=O)OCC1=C(C(=O)O)N2C(=O)[C@@H](NC(=O)Cc3cccs3)[C@H]2SC1 [Cefalotin sodium] | inactive: -1.08 | inactive: 1.64 | inactive: -1.84 |
| C=C1[C@H](CO)[C@@H](O)C[C@@H]1n1cnc2c(O)nc(N)nc21 [Entecavir hydrate] | inactive: -1.2 | – | inactive: -1.8 |
| C=C1[C@H](CO)[C@@H](O)C[C@@H]1n1cnc2c(O)nc(N)nc21 [entecavir] | – | inactive: -0.511 | – |

| SMILES | TEAD-luciferase reporter activity (compound concentration: 200 nM) | TEAD-luciferase reporter activity (compound concentration: 2 uM) | TEAD-luciferase reporter activity (compound concentration: 10 uM) |
| --- | --- | --- | --- |
| N=C(N)NCC1CCC(C(=O)Oc2ccccc2C(=O)OCc2ccccc2)CC1 (stereo not given) | inactive: -0.373 | inactive: 0.279 | inactive: 0.669 |
| O=C(O)c1cc(O)ccc1O | inactive: 0.0219 | inactive: -0.0902 | inactive: 0.0409 |
| O=C(c1cc(Br)cn2ccnc12)N1CCC(N2CCCCCC2=O)CC1 | inactive: -0.555 | – | inactive: 1.33 |
| NC(=O)c1cnc(N[C@@H]2CCCC[C@@H]2N)nc1Nc1cccc(-n2nccn2)c1 | inactive: 2.9 | active: 7.99 | inactive: 1.11 |
| COCCCN1CC[C@@H](CNC(=O)c2cc(Cl)c(N)c3c2OCC3)[C@@H](O)C1 | inactive: -0.727 | inactive: 0.314 | inactive: -1 |
| Cc1c(CC(=O)O)c2ccccc2n1C(=O)c1ccccc1 [Delmetacin] | inactive: -0.705 | inactive: 0.419 | inactive: -1.09 |
| Fc1cc(F)cc(Cn2ccnc2S)c1 | inactive: -0.544 | inactive: -1.24 | inactive: -0.539 |
| Cc1onc(-c2c(F)cccc2Cl)c1C(=O)N[C@@H]1C(=O)N2[C@@H]1SC(C)(C)[C@@H]2C(=O)[O-] | inactive: -0.887 | inactive: -0.663 | inactive: -1.19 |
| Cn1c(=O)c2ncn(CC(=O)Nc3nc(-c4ccc(Cl)cc4)cs3)c2n(C)c1=O | inactive: 0.244 | inactive: -1.26 | inactive: 3.55 |
| Cc1cn(CC#CCN2CCCC2=O)cn1 | inactive: -0.788 | inactive: -0.043 | inactive: 3.75 |
| O=C(O)[C@H](Cc1ccc(Nc2nccc3ccncc23)cc1)NC1=C(Br)C(=O)C12CCCCC2 | inactive: 0.777 | inactive: -0.194 | inactive: -0.055 |
| COCCCNC(=O)c1ccnc(C(=O)NCCCOC)c1 [Safironil] | inactive: -1.94 | inactive: -1.05 | active: 5.29 |
| CCN(CC)CCOc1ccc(N(C)C(=O)c2ccc(-c3ccc(C(F)(F)F)cc3)cc2)cc1OC | inactive: -1.62 | inactive: -1.48 | inactive: 0.0269 |
| Nc1nc(N)c(-c2ccccc2)s1 | inactive: -0.895 | inactive: -1.78 | inactive: 3.37 |
| O=C(CC1(c2ccccc2)C2CC3CC(C2)CC1C3)NCC(O)CO (stereo not given) | inactive: -0.253 | inactive: -1.57 | inactive: 1.67 |
| O=C(O)CCCCCCCOc1nc(-c2ccccc2)c(-c2ccccc2)n1-c1ccccc1 | inactive: 1.05 | inactive: 0.437 | inactive: -1.17 |
| COC(=O)c1ccc(NC(=O)CSc2nnc(Br)n2-c2ccc(C3CC3)c3ccccc23)c(Cl)c1 | inactive: 0.848 | inactive: -0.991 | inactive: -1.26 |
| NCCc1ccc(O)c(O)c1 [Intropin] | inactive: 4.79 | – | inactive: -0.569 |
| NCCc1ccc(O)c(O)c1 [dopamine, Kowa] | – | inactive: -0.0909 | – |

3 entries from above in another layout.
SMILES | TEAD-luciferase reporter activity (compound concentration: 200 nM) | TEAD-luciferase reporter activity (compound concentration: 2 uM) | TEAD-luciferase reporter activity (compound concentration: 10 uM)
COC(=O)c1ccc(NC(=O)CSc2nnc(Br)n2-c2ccc(C3CC3)c3ccccc23)c(Cl)c1 | inactive: 0.848 | inactive: -0.991 | inactive: -1.26
NCCc1ccc(O)c(O)c1 [Intropin] | inactive: 4.79 | – | inactive: -0.569
NCCc1ccc(O)c(O)c1 [dopamine, Kowa] | – | inactive: -0.0909 | –
